# Laboratory results taken from PubChem BioAssay AID493014 (National Center for Advancing Translational Sciences (NCATS), 2011).
# Screen size: about 340,000 compounds; about 170 (0.05%) were called active. The shares of active, inactive and inconclusive entries below differ from those in the screen. Calls come from the whole dose curve; as a rule, active = well fitted inhibition curve with a large enough effect in the signal ratio, with a control signal flat (not every such curve was filed as active); inconclusive = small, poorly fitted or top-dose-only effect, or effect the other way, or a change in a side signal; inactive = flat fitted curve, though single readings scatter; the % refers to the signal ratio. Potencies beside an inconclusive call are fits to weak or partial responses and may not hold up.
# Assay: qHTS Assay to Find Inhibitors of Chronic Active B-Cell Receptor Signaling;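 for activity change, negative = inhibition: plate controls were basal doxycycline-induced cells for no effect and cells given 10 µM MG132 for full effect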
# Settings: ABC-DLBCL IkBa-CBG/CBR reporter, luminescence ratio (green luciferase fused to IkBa over red control in TMD8 lymphoma cells), 4 h; activity change, negative = inhibition: at 46.1 µM (top of the series)
# Summary of the method: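 TMD8 human ABC-DLBCL cells with doxycycline-inducible IκBα–green luciferase fusion and unfused red luciferase, in 0.5% FBS medium; compounds up to 46 uM, 4 h at 37C. Green/red luminescence ratio, filter-overlap corrected, fitted to concentration-response curves.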
# Potency is the fitted concentration of half-maximal effect.
SMILES,Potency,"activity change, negative = inhibition"
COc1ccc(/C=C\C(=O)CC(O)(c2ccccc2)C(F)(F)F)cc1 (centres undefined),"inconclusive: 29.1 µM [falling, single point]",
CC(=O)Nc1ccc(CN2CCCC(C(=O)c3ccc(C(F)(F)F)cc3)C2)cc1 (centres undefined),,inactive: -1.52%
O=C(Nc1ccccc1C(=O)Nc1ccncc1)c1ccc([N+](=O)[O-])cc1,"inconclusive: 35.5 µM [rising, single point]",
CCN1CCN(c2nc3c(c(=O)[nH]c(=O)n3C)n2Cc2ccccc2F)CC1,,inconclusive: 2.93%
Cc1sc(NC(=O)c2ccco2)c(C(c2cccnc2)N2CCC(C)CC2)c1C (centres undefined),,inconclusive: -6.83%
CCCCCNC(=O)C(C#N)c1nc2ccccc2nc1N1CCCC1 (centres undefined),"inconclusive: 23.1 µM [rising, single point]",
O=C(Nc1cc(C(F)(F)F)ccc1N1CCOCC1)C1=COCCO1,,inconclusive: 9.27%
COc1ccc(CCn2c(=N)c(C(=O)NC3CCCCC3)cc3c(=O)n4ccccc4nc32)cc1,,inconclusive: -2.56%
COn1c2c(c3c4no[n+]([O-])c4ccc31)CCCC2,,inactive: 14.2%
CC(=O)c1sc(NC(=O)c2cccs2)nc1C,,inconclusive: -0.642%
O=C(CN1CCN(Cc2cccc(Cl)c2)C1=O)NCc1ccc(F)cc1,,inconclusive: 0.852%
COc1ccc(C(=O)NCC2(c3ccccc3)CCOCC2)cc1,,inconclusive: -17.9%
COc1ccc(OC)c2sc(N3CCN(C(=O)c4ccc5c(c4)CCCC5)CC3)nc12,"inconclusive: 12.6 µM [falling, partial curve, poor fit]",
COc1ccc2[nH]c(C)c(C(=O)CN3CCN(C/C=C/c4ccccc4)CC3)c2c1,,inconclusive: -14.3%
O=C1C(NS(=O)(=O)c2cccs2)=C(N2CCN(c3cccc(Cl)c3)CC2)C(=O)c2ccccc21,,inconclusive: 21.3%
COc1ccccc1N1CCN(C(=O)C(C)NC(=O)c2ccco2)CC1 (centres undefined),,inconclusive: 1.21%
COC(=O)[C@H]1[C@H]2C[C@@H]3c4[nH]c5cc(OC)ccc5c4CCN3C[C@H]2C[C@@H](OC(=O)/C=C/c2cc(OC)c(OC)c(OC)c2)[C@@H]1OC,,inactive: -5.74%
Cc1ccc(Cc2cnc(N3C(=N)SC(C)C3=O)s2)cc1 (centres undefined),,inconclusive: -19.3%
COc1ccc(-c2cc3ccc(OC)cc3cn2)cc1,"inconclusive: 2.91 µM [falling, partial curve, poor fit]",
O=c1cc2c(nn1Cc1ccc(Cl)cc1)-c1ccccc1CC2,"inconclusive: 11.6 µM [falling, partial curve, poor fit]",
c1ccc(-c2nc(N3CCCCCC3)nc(-n3ccnc3)n2)cc1,,inactive: 5.92%
C/C(=N/NC(=O)c1ccc(C)s1)c1cccnc1,,inconclusive: -21.4%
CCc1ccc2nc(N(Cc3cccnc3)C(C)=O)sc2c1,,inconclusive: -2.28%
O=C(CC(NC(=O)c1ccccc1)c1ccccc1)Nc1ccc(F)c(F)c1 (centres undefined),,inconclusive: 0.662%
COc1ccc(CCNc2nc3ccccc3n3nnnc23)cc1OC,"inconclusive: 5.17 µM [falling, partial curve]",

# Sorted by molar mass (rising): 4 of the compounds above.
SMILES,Potency,"activity change, negative = inhibition"
COc1ccc(-c2cc3ccc(OC)cc3cn2)cc1,"inconclusive: 2.91 µM [falling, partial curve, poor fit]",
Cc1ccc(Cc2cnc(N3C(=N)SC(C)C3=O)s2)cc1 (centres undefined),,inconclusive: -19.3%
O=C(CN1CCN(Cc2cccc(Cl)c2)C1=O)NCc1ccc(F)cc1,,inconclusive: 0.852%
COC(=O)[C@H]1[C@H]2C[C@@H]3c4[nH]c5cc(OC)ccc5c4CCN3C[C@H]2C[C@@H](OC(=O)/C=C/c2cc(OC)c(OC)c(OC)c2)[C@@H]1OC,,inactive: -5.74%

# Next part.

SMILES,Potency,"activity change, negative = inhibition"
Cc1cc(C)c2c(-n3cccc3)c(C(=O)NNS(=O)(=O)c3ccc(Br)cc3)sc2n1,,inconclusive: -8.94%
O=S(=O)(N/N=C/c1ccccc1F)c1ccccc1,,inactive: -7.53%
COc1cccc(OCC(=O)NNC(=O)C(=O)Nc2cccc(C)c2)c1,"inconclusive: 20 µM [falling, single point]",
Cc1ccc(/C=C2\SC(=S)N(C(Cc3ccccc3)C(=O)O)C2=O)cc1 (centres undefined),,inactive: 13.5%
Cc1ccc(Cl)cc1N1CCN(C(=O)c2ccc(CN3CCOCC3)cc2)CC1,,inconclusive: -4.68%
COc1cccc(-c2nc(CS(=O)(=O)CC(=O)NCCC(C)C)c(C)o2)c1,,inactive: -0.175%
O=C(NC(Nc1nc2ccc([N+](=O)[O-])cc2s1)(C(F)(F)F)C(F)(F)F)c1ccccc1Cl,,inconclusive: -11.5%
CCc1ccc2[nH]c(O)c(N=Nc3nc(-c4ccccc4)cs3)c2c1,,inconclusive: 10.4%
COC1=C/C(=C/c2c(N)n3nc(CC(=O)N4CCCCC4)sc3nc2=O)C=CC1=O,,inactive: -0.509%
COc1ccc(CC(=O)Nc2ccc(-c3noc(-c4ccc(Cl)cc4)n3)cc2)cc1,,inconclusive: 10.3%
Cc1ccc(-c2nc(Nc3ccc(N4CCOCC4)cc3)c3ccccc3n2)cc1,"inconclusive: 35.5 µM [rising, partial curve, poor fit]",
COc1cccc(N(C(=O)CNC(=O)c2ccco2)C(C(=O)NC2CCCC2)c2ccncc2)c1 (centres undefined),,inconclusive: 3.04%
CCOCCCNC(=O)C(c1ccc(Cl)cc1)N(Cc1cccs1)C(=O)CNC(C)=O (centres undefined),,inconclusive: 7.67%
CC(=O)Oc1ccc(-c2ccc(C(=O)Nc3cccc(S(=O)(=O)N4CCOCC4)c3)cc2)cc1,,inconclusive: -26.4%
COc1cc2c(cc1OC)C(C)N(C(=O)CCNC(=O)c1ccccc1)CC2 (centres undefined),,inactive: -0.133%
CCC(CC)NC(=O)COC(=O)c1ccc(NS(=O)(=O)c2ccc3c(c2)OCCO3)cc1,,inconclusive: -18.5%
CCN1CCN(CC(O)COCC2COc3ccccc3O2)CC1 (centres undefined),,inconclusive: 7.64%
Cc1ccc(N2CC(C(=O)OCc3nnc(-c4ccccc4)o3)CC2=O)cc1 (centres undefined),,inconclusive: 7.16%
CCOc1cccc(C(=O)Nc2cccc(C(=O)NCC(C)C)c2)c1,"inconclusive: 23.1 µM [falling, partial curve, poor fit]",
O=C(Nc1ccc(Cl)cc1)Nc1cccc(C(=O)O)c1,,inconclusive: 205%
Cc1ccc(NC(=O)CSCC(=O)N(C)CC(=O)Nc2cccc(F)c2)cc1,,inactive: 0.551%
c1ccc2c(c1)CCN(c1nc3cc4c(cc3s1)OCO4)C2,"inconclusive: 29.1 µM [falling, single point]",
O=C(Nc1ccc(N2CCOCC2)cc1)Nc1ccc2nc(-c3ccco3)c(-c3ccco3)nc2c1,"inconclusive: 1.84 µM [rising, full curve]",
CCCOc1ccc(C(=O)NNC(=S)NC(=O)c2ccccc2)cc1,,inconclusive: -10.5%
